{"source": "PubChem BioAssay AID504444", "about": "(National Center for Advancing Translational Sciences (NCATS), 2011)", "note": "In all, about 360,000 compounds went through this assay and about 7,500 (2.1%) were called active. The inconclusive results got no clear call from the source; some entries with a clear call stand among them for comparison. The call rests on the fitted dose curve; in most records, active means well fitted inhibition curve with a large enough effect; inconclusive means small, poorly fitted or top-dose-only effect, or effect the other way; inactive means flat fitted curve, though single readings scatter. Where the call is inconclusive, the potency comes from a doubtful curve fit. On the % scale 0 is the no-effect control and ±100 the full control effect; potency means the concentration at half of the fitted maximal effect.", "data": [{"assay": "Nrf2 qHTS screen for inhibitors; further: nearly all actives have a fitted effect of over 60% in size", "details": "A549 ARE-Fluc reporter, luciferase luminescence, 18-24 h; activity change, negative = inhibition: at 46 µM (top of the series)", "in_short": "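In this cell-based qHTS, ARE-driven firefly luciferase in A549 cells reports Nrf2 activity; the luminescent signal after BugLite lysis is the measured value, with a prior CellTiter-Fluor read for cell health.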", "values": [{"smiles": "CCOc1ccc(CNC(=O)c2cnc3sc(N4CCOCC4)nn3c2=O)cc1OC", "Potency": "inconclusive: 0.92 µM [activator, full curve, poor fit]"}, {"smiles": "Cc1cccn2c(Nc3ccccc3)c(-c3cccs3)nc12", "Potency": "inconclusive: 20.6 µM [activator, partial curve]"}, {"smiles": "CN(C)c1ccc(C(=O)NNC(=O)C23CC4CC(CC(C4)C2)C3)cc1", "Potency": "inconclusive: 7.31 µM [activator, partial curve]"}, {"smiles": "Cc1ccc(NS(=O)(=O)c2ccc(-c3ccc(=O)[nH]n3)o2)cc1Cl", "Potency": "inconclusive: 29.1 µM [falling, partial curve, poor fit]"}, {"smiles": "CCCCC(=O)Nc1ncc(Br)s1", "Potency": "inconclusive: 29.1 µM [falling, single point]"}, {"smiles": "COc1ccc(-n2nc(C(=O)NCC(=O)NCC3COc4ccccc4O3)c3ccccc3c2=O)cc1OC", "note": "(stereo not drawn)", "Potency": "inconclusive: 5.8 µM [falling, partial curve, poor fit]"}, {"smiles": "Cc1[nH]c2ccccc2c1C(c1ccccc1)c1ccc(Cl)s1", "note": "(stereo not drawn)", "Potency": "inconclusive: 20.6 µM [falling, single point]"}, {"smiles": "Cc1cc(C)c(NC(=O)CN2C(=O)NC3(CCOc4ccccc43)C2=O)c(C)c1", "note": "(stereo not drawn)", "Potency": "inconclusive: 25.9 µM [activator, single point]"}, {"smiles": "CCOCCCn1c(SCC(=O)Nc2oc(C)c3c(C)n[nH]c(=O)c23)nc2ccccc2c1=O", "Potency": "inconclusive: 16.4 µM [falling, single point]"}, {"smiles": "COc1cc(OC)cc(C(=O)Nc2ccccc2-c2nnn(CC(N)=O)n2)c1", "Potency": "inconclusive: 8.2 µM [falling, partial curve]"}, {"smiles": "COc1ccc(NS(=O)(=O)c2cc(NC(=O)COc3ccc(OC)cc3)ccc2N2CCOCC2)cc1", "activity change, negative = inhibition": "inactive: -14.3%"}, {"smiles": "CCC(C(=O)NC1CCCC1)N(C(=O)Cn1nnc(-c2ccc(C)o2)n1)c1ccc(F)cc1", "note": "(stereo not drawn)", "Potency": "inconclusive: 20.6 µM [falling, single point]"}, {"smiles": "CC(C)C[C@H](NC(=O)OC(C)(C)C)c1nnc(SCc2cccc(F)c2)o1", "Potency": "inconclusive: 32.6 µM [falling, single point]"}, {"smiles": "COc1ccc2[nH]c3c(c2c1)CCN1C(=O)C(CC(=O)NCCC2=CCCCC2)C[C@H](C(=O)N2CCCCC2)[C@@]31CCc1ccccc1", "note": "(stereo partly drawn)", "Potency": "active: 18.4 µM"}, {"smiles": "Cc1cc(C)n(CC(=O)NC2C(=O)N3C(C(=O)O)=C(CSc4nnc(C)s4)CSC23)n1", "note": "(stereo not drawn)", "activity change, negative = inhibition": "inactive: 16.4%"}, {"smiles": "COC(=O)CSc1nc2c(cnn2-c2ccc(Cl)cc2)c(=O)[nH]1", "Potency": "inconclusive: 9.2 µM [falling, partial curve, poor fit]"}, {"smiles": "CC(NC(=O)c1ccc(Br)cc1)c1ccc2c(c1)CCCC2", "note": "(stereo not drawn)", "Potency": "inconclusive: 18.4 µM [falling, partial curve]"}, {"smiles": "Cc1ccc([N+](=O)[O-])cc1S(=O)(=O)Nc1cccc(S(=O)(=O)Nc2ccccc2C(=O)O)c1", "activity change, negative = inhibition": "inactive: -0.971%"}, {"smiles": "CCC1CC=CC2C1C(=O)N(Cc1ccccc1)C2c1cccc([N+](=O)[O-])c1", "note": "(stereo not drawn)", "activity change, negative = inhibition": "inactive: -12.4%"}, {"smiles": "Cc1cnc(NC(=O)CN2CCN(c3ccccn3)CC2)s1", "Potency": "inconclusive: 16.4 µM [falling, single point]"}, {"smiles": "COc1ccc(Oc2coc3cc(O)ccc3c2=O)cc1", "Potency": "inconclusive: 10.3 µM [falling, partial curve, poor fit]"}, {"smiles": "OCCCNc1ncnc2scc(-c3ccc(Cl)cc3)c12", "Potency": "inconclusive: 16.4 µM [falling, single point]"}, {"smiles": "O=C(Nc1ccccc1O)c1nc(Cl)ccc1Cl", "Potency": "inconclusive: 13 µM [activator, partial curve, poor fit]"}, {"smiles": "CCOc1ccc(NC(=O)CSc2nnc3c(n2)[nH]c2ccc(S(=O)(=O)N(C)C)cc23)cc1", "activity change, negative = inhibition": "inactive: 4.5%"}, {"smiles": "CCOc1ccc(CCNC(=O)Cn2c(-c3cccs3)cc3cc(F)ccc32)cc1OCC", "Potency": "inconclusive: 0.82 µM [falling, full curve, poor fit]"}, {"smiles": "Cc1ccc(C)c(S(=O)(=O)c2c(C)cc(C)[nH]c2=O)c1", "activity change, negative = inhibition": "inactive: 3.51%"}, {"smiles": "COc1cc(/C=C/C(=O)OCC(=O)NC(=O)NC(C)C)cc(S(=O)(=O)N2CCc3ccccc32)c1OC", "Potency": "inconclusive: 29.1 µM [falling, single point]"}, {"smiles": "CCCc1cc(N2CCN(c3ccccc3)CC2)n2cnnc2n1", "Potency": "inconclusive: 18.4 µM [falling, single point]"}, {"smiles": "O=S(=O)(c1ccccc1)c1nc(-c2cccs2)oc1NCC1CCCO1", "note": "(stereo not drawn)", "Potency": "inconclusive: 0.0651 µM [falling, full curve, poor fit]"}, {"smiles": "CCOC(=O)c1ccc(S(=O)(=O)Nc2ccc3cn[nH]c3c2)cc1", "Potency": "inconclusive: 20.6 µM [falling, single point]"}, {"smiles": "CCc1ccc(CN(Cc2ccco2)c2cnc(S(C)(=O)=O)nc2C(=O)Nc2c(C)cccc2C)cc1", "activity change, negative = inhibition": "inactive: -9.59%"}, {"smiles": "Cc1ccccc1NC(=O)C(=O)N/N=C/c1cccc(Br)c1", "Potency": "inconclusive: 2.31 µM [falling, partial curve]"}, {"smiles": "CCOC(=O)c1ccc(-c2ccc(/C=C(\\C#N)C(=O)NCC3CCCO3)o2)cc1", "note": "(stereo not drawn)", "Potency": "inconclusive: 20.6 µM [activator, single point]"}, {"smiles": "COc1ccccc1-c1ccc(C(=O)O)o1", "Potency": "inconclusive: 23.1 µM [activator, single point]"}, {"smiles": "CCn1nc(C(=O)Nc2ccc(S(=O)(=O)Nc3ncccn3)cc2)c2ccccc2c1=O", "activity change, negative = inhibition": "inactive: -12.2%"}, {"smiles": "Cc1nc2c(c(=O)n1CCC1=CCCCC1)c1nc3ccccc3nc1n2/N=C/c1ccccc1", "Potency": "inconclusive: 3.66 µM [falling, partial curve, poor fit]"}, {"smiles": "COC(=O)c1sccc1NC(=O)/C=C/c1ccc(Cl)cc1", "Potency": "inconclusive: 1.84 µM [activator, partial curve, poor fit]"}, {"smiles": "C=CCNC(=O)c1ccc(CSc2nc3ccccc3s2)cc1", "Potency": "inconclusive: 29.1 µM [falling, partial curve, poor fit]"}, {"smiles": "Cc1oc(-c2ccccc2F)nc1CS(=O)(=O)CC(=O)N1CCN(Cc2ccccc2)CC1", "Potency": "inconclusive: 14.6 µM [falling, partial curve, poor fit]"}, {"smiles": "Cc1ccc(NC(=O)C2CCN(S(=O)(=O)c3ccc4[nH]c(=O)ccc4c3)CC2)cc1C", "Potency": "inconclusive: 20.6 µM [falling, partial curve]"}, {"smiles": "CCOC(=O)c1ccccc1NC(=O)COC(=O)c1cc([N+](=O)[O-])ccc1N1CCOCC1", "Potency": "inconclusive: 32.6 µM [falling, single point]"}, {"smiles": "CC(OC(=O)c1ccc(NC(=O)CC#N)cc1)C(=O)NC(c1ccccc1)c1ccccc1", "note": "(stereo not drawn)", "activity change, negative = inhibition": "inactive: 9.86%"}, {"smiles": "CCOc1ccc(S(=O)(=O)N2CCN(C(=O)C3CCC3)CC2)cc1", "Potency": "inconclusive: 13 µM [falling, partial curve]"}, {"smiles": "CC(C)(C)c1cc(NC(=O)c2ccco2)no1", "Potency": "inconclusive: 4.61 µM [activator, partial curve]"}, {"smiles": "CCN1C(=O)[C@H]2[C@@H](c3ccc(-c4ccc(OC)cc4)cc3)N3CCCC[C@@]3(C(=O)OC)[C@H]2C1=O", "Potency": "inconclusive: 20.6 µM [falling, single point]"}, {"smiles": "COc1ccc(/C=N/Nc2ncccc2[N+](=O)[O-])c(OC)c1", "Potency": "inconclusive: 11.6 µM [activator, partial curve, poor fit]"}, {"smiles": "O=C(Cn1ncc2c3ccccc3n(Cc3ccc(F)cc3)c2c1=O)N1CCN(c2ncccn2)CC1", "Potency": "inconclusive: 16.4 µM [falling, single point]"}, {"smiles": "CCn1nc(C)c(/C=N/NC(=O)Cn2nccc2C)c1C", "Potency": "inconclusive: 13 µM [activator, partial curve]"}, {"smiles": "C=CCNC(=O)C1CC2Cn3c(nc4cc(Cl)c(Cl)cc43)C2N1C", "note": "(stereo not drawn)", "activity change, negative = inhibition": "inactive: 1.83%"}, {"smiles": "COC(=O)C(Cc1ccccc1)NCC(=O)Nc1cccc(Cl)c1C", "note": "(stereo not drawn)", "activity change, negative = inhibition": "inactive: 2.78%"}, {"smiles": "c1ccc(N(c2ccccc2)c2nc(-n3ccnc3)nc(-n3ccnc3)n2)cc1", "Potency": "inconclusive: 25.9 µM [falling, partial curve, poor fit]"}, {"smiles": "CC(C)n1cnc2c(NCc3ccccc3)cc(Cc3ccc(F)cc3)cc21", "Potency": "inconclusive: 29.1 µM [falling, single point]"}, {"smiles": "COc1ccccc1-n1c(SCC(=O)Nc2ccc3c(c2)OCO3)nc2c(c1=O)SCC2", "Potency": "inconclusive: 0.58 µM [falling, partial curve, poor fit]"}, {"smiles": "COc1ccc(N2CCN(C(=O)CSc3c4c(nc5ccc(Cl)cc35)CCCC4)CC2)cc1", "Potency": "inconclusive: 29.1 µM [falling, single point]"}, {"smiles": "Cc1ccc2nc(CSc3nc(C)cc(C)c3C#N)[nH]c2c1", "Potency": "inconclusive: 2.59 µM [activator, full curve]"}, {"smiles": "Cc1ccc(CNC(=O)Cn2c(=O)c3sccc3n(Cc3ccc([N+](=O)[O-])cc3)c2=O)cc1", "Potency": "inconclusive: 9.2 µM [falling, partial curve]"}, {"smiles": "O=S(=O)(c1ccc(Oc2ccc(Br)cc2F)nc1)N1CCCCC1", "Potency": "active: 16.4 µM"}, {"smiles": "Cc1cccc(N2CCN(S(=O)(=O)c3ccc4c(c3)C(C(C)C)C(=O)N4)CC2)c1C", "note": "(stereo not drawn)", "Potency": "active: 13 µM"}, {"smiles": "COc1ccc(NC(=O)CN2C(=O)NC(c3ccccc3)(c3ccccc3)C2=O)cc1OC", "Potency": "inconclusive: 29.1 µM [activator, single point]"}, {"smiles": "O=c1[nH]c2ccccc2n1Cc1ccc(Cl)cc1", "Potency": "inconclusive: 20.6 µM [falling, single point]"}, {"smiles": "CCNC(=S)N(Cc1ccccc1)Cc1nc2ccccc2c(=O)[nH]1", "Potency": "inconclusive: 2.91 µM [falling, partial curve]"}, {"smiles": "Cc1oc(-c2ccccc2F)nc1CSCC(=O)N1CCN(c2ccccc2)CC1", "Potency": "active: 7.31 µM"}, {"smiles": "N/C(=N\\OC(=O)c1cccc(Br)c1)c1ccc([N+](=O)[O-])cc1", "Potency": "inconclusive: 23.1 µM [activator, single point]"}]}]}
